Laboratory results taken from ChEMBL document CHEMBL1146131, “3D-QSAR studies of farnesyltransferase inhibitors: a comparative molecular field analysis approach” (Bioorg Med Chem Lett, 2006).
pIC50: −log10 of the molar value.

Biological target: Protein farnesyltransferase (Homo sapiens, UniProt P49354+P49356)
Test: Inhibition of FTase
Assay type: protein-complex assay

- pIC50: 6.45
SMILES: COc1cccc(-c2cc(C#N)ccc2COC(c2ccc(C#N)cc2)c2cncn2C)c1 (stereo unspecified)
